Results deposited as PubChem BioAssay AID743454 (Peter MacCallum Cancer Centre, 2014)

Aim: 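Knock-downs lowering viability or raising caspase 3/7 activity in vorinostat-treated resistant cells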 (primary screen)
System: human HCT116-VR colon cancer cells, selected for vorinostat resistance
Knock-down reagent: siRNA pool against human genes, 40 nM siRNA pool
Duration: vorinostat for 24 h, read-out about 72 h after transfection
Treatment: vorinostat at 2.5 µM final
Measurement: 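Two measures, CellTiter-Fluor viability and luminescent caspase 3/7 activity, each as fold change against same-plate mock wells, mean of duplicates, then screen-wide robust z-score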
Scale: viability robust z-score: higher = more viable cells than screen typical; caspase robust z-score: higher = more caspase 3/7 activity than screen typical
Hit rule: 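a knock-down is a hit when classed RV1 or RV2 for lowered viability, or CA1 or CA2 for caspase activation; those lethal without drug were dropped; hits were retested singly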
Here is one part, drawn at random, of about 18,000 reagents tested. 450 of them (2.5%) count as active. 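Single biological run; no consistent viability z cut-off exists, so the class columns, not z-scores, define the calls.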 Reagent sequences are not shown.

gene symbol,viability hit class,caspase hit class,viability robust z-score,caspase robust z-score,Outcome
HSD3B7,no change,no change,-2.41,2.04,inactive
ATOSB,no change,no change,-1.16,0.22,inactive
SNRNP40,no change,no change,-0.24,1.05,inactive
ZNF792,no change,no change,0.44,-0.26,inactive
GRINA,no change,no change,-0.28,2.25,inactive
SS18,no change,no change,0.68,-0.08,inactive
MGAT4B,no change,no change,1.01,-0.64,inactive
PHACTR4,no change,no change,-1.9,-0.46,inactive
GRN,no change,no change,-0.37,-0.12,inactive
TUBGCP2,no change,no change,0.2,1.96,inactive
RCCD1,no change,no change,0.31,-0.28,inactive
DCDC2,no change,no change,-0.47,1.25,inactive
GPD1,no change,no change,0.48,0.48,inactive
KAAG1,no change,no change,-1.95,3.06,inactive
PTAFR,no change,no change,-0.75,-0.22,inactive
NDUFA1,no change,no change,-2.42,2.16,inactive
PTGIR,no change,no change,0.53,3.59,inactive
PTPRJ,no change,no change,-1.58,-1.05,inactive
WDR49,no change,no change,0.3,-1.23,inactive
XCL2,no change,no change,0.68,1.01,inactive
RAB1A,no change,no change,-0.7,0.69,inactive
OMP,no change,no change,-0.38,5.12,inactive
BLTP3B,no change,no change,-0.03,1.08,inactive
AGTRAP,no change,no change,0.48,-0.4,inactive
RCAN3,no change,no change,0.08,0.2,inactive
ELP6,no change,no change,-0.76,0.42,inactive
APOO,no change,no change,-1.02,0.97,inactive
ZBTB45,no change,no change,-0.63,4.24,inactive
MDH1B,no change,no change,-0.18,-1.25,inactive
NF2,no change,no change,-0.61,3.3,inactive
DRICH1,no change,no change,1.55,-0.76,inactive
RELL2,no change,no change,-0.56,-0.42,inactive
GMEB1,no change,no change,0.3,-1.21,inactive
VIL1,no change,no change,0.36,0.08,inactive
TMEM207,no change,no change,-0.69,-0.56,inactive
FFAR2,no change,no change,0.91,0,inactive
RSAD2,no change,no change,0.29,1.9,inactive
GSTA2,no change,no change,0.34,-0.32,inactive
CSTB,no change,no change,-2.23,1.5,inactive
BTNL8,no change,no change,0.53,-1.12,inactive
PEX3,no change,no change,-0.16,0.32,inactive
ARL8A,no change,no change,-0.84,-0.94,inactive
SIX2,no change,no change,-1.02,-0.54,inactive

Copied from the entries so far (5 entries):
gene symbol,viability hit class,caspase hit class,viability robust z-score,caspase robust z-score,Outcome
RCCD1,no change,no change,0.31,-0.28,inactive
DCDC2,no change,no change,-0.47,1.25,inactive
GPD1,no change,no change,0.48,0.48,inactive
KAAG1,no change,no change,-1.95,3.06,inactive
PTAFR,no change,no change,-0.75,-0.22,inactive

The results go on:
gene symbol,viability hit class,caspase hit class,viability robust z-score,caspase robust z-score,Outcome
FLVCR2,no change,no change,-1.03,-0.48,inactive
MLANA,no change,no change,-0.61,3.5,inactive
SLK,no change,no change,0.67,-0.78,inactive
METTL15,no change,no change,0.69,-0.94,inactive
CEP104,no change,no change,0.44,-0.66,inactive
PRSS54,no change,no change,0.44,-1.03,inactive
CDC45,no change,no change,0.09,1.36,inactive
CFAP184,no change,no change,-1.54,3.27,inactive
PACS2,no change,no change,0.84,-0.72,inactive
BAG1,no change,no change,-0.99,4.62,inactive
CDC42,no change,no change,-0.3,1.15,inactive
INHBB,no change,no change,1.06,0.2,inactive
AP1M1,no change,no change,1.29,-0.76,inactive
PSG1,no change,no change,2.93,-0.14,inactive
CLDN23,no change,no change,-0.03,1.6,inactive
CASP9,no change,no change,-1.17,-0.35,inactive
UBE2G1,no change,no change,-0.38,-0.07,inactive
CYP4V2,no change,no change,0.18,-1.12,inactive
IMMP2L,no change,no change,-0.5,1.01,inactive
SMOC2,no change,no change,-0.76,0.3,inactive
AGAP1,no change,no change,0.6,-0.44,inactive
ADGRG2,no change,no change,-0.92,0.53,inactive
CYP51A1,no change,no change,-1.01,2.69,inactive
RETN,no change,no change,0.3,-1.31,inactive
GRM1,no change,no change,-0.43,0.92,inactive
TSPAN2,no change,no change,0.32,-0.23,inactive
SCTR,no change,no change,-1.12,-0.27,inactive
PHLDA3,no change,no change,0.47,1.1,inactive
C22orf23,no change,no change,0.05,0.2,inactive
RFPL4B,no change,no change,0.68,-0.61,inactive
